Binding data for 1 substance are collected here from patent US20250003955A1.

The chains behind the UniProt entries cited, without tags or fusion partners. Where a name states a change or a piece, a line headed by the entry shows the natural chain unless it says otherwise.
UniProt O09165: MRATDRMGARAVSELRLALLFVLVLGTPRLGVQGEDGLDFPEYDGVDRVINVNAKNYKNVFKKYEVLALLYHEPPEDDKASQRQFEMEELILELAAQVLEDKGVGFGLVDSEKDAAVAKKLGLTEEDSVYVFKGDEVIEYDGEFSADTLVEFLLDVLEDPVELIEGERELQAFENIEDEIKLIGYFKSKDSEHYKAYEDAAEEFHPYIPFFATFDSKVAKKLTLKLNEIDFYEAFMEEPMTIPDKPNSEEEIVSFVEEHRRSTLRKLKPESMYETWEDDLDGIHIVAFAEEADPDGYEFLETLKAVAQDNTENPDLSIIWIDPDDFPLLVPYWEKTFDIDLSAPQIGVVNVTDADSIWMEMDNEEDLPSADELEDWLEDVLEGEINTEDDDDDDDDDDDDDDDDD

No constants are given. Whether binding was seen depends on the method and setting. Some results given as binding are weak or reduced against the parent protein; the word gives no strength.

This test concerns the target M. musculus skeletal calsequestrin (MmCasq1) (mouse (M. musculus)) (UniProt O09165). Put plainly: cryo-electron tomography of purified protein (self-association, homodimer).

Consider “M. musculus skeletal calsequestrin (MmCasq1) (from UniProt O09165 35-405)”, for which the binding entry was “binds”.
